Measured values as given in article PMC3970802.
These are yes or no findings as the source states them, for the method shown. For part of these data: In cells and extracts the contact can be indirect. Some entries that bind do so weakly or less than the wild type.

Amino acid sequences for entries named in this document (tags omitted). A change or cut given only in a name is not applied to a line headed by its entry.
UniProt P54253: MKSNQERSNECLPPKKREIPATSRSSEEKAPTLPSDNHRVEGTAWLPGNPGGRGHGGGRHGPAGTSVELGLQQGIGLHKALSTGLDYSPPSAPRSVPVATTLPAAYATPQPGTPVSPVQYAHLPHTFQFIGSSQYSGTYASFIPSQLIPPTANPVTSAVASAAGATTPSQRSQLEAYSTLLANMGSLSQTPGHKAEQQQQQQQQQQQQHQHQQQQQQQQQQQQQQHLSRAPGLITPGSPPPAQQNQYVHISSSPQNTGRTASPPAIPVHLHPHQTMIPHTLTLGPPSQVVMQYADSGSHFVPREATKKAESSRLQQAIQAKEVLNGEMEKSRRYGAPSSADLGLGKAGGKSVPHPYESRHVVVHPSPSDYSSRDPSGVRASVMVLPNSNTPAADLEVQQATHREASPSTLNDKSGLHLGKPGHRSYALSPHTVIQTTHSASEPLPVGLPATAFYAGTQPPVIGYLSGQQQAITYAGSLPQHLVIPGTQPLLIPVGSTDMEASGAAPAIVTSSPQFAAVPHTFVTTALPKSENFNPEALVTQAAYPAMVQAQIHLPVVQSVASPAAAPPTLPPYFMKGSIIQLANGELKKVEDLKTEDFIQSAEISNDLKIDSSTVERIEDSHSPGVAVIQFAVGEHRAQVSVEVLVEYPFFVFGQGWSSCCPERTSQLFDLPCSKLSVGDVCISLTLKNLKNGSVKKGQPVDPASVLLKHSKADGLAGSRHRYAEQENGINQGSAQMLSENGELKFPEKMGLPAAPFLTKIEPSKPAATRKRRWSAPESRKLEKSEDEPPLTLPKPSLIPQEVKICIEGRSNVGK

How the values were obtained:
[1] = target: AXH domain of ataxin-1, recombinant protein for size exclusion chromatography (UniProt P54253); test: SEC; analytical, Superdex-75 10/300 GL, 20 mM Tris-HCl pH 7, 150 mM NaCl, 1 mM TCEP; 200 ul of 150 uM protein incubated 24 h at 37 °C, each injected separately; 0.8 ml/min; dimer to monomers; both purified
[2] = target: Full-length non-expanded (Q30) ataxin-1, CFP or YFP fused at its N-terminus (UniProt P54253); test: FRET or BRET; acceptor photobleaching FRET between co-expressed CFP and YFP fusions in COS cells, fixed with 4% paraformaldehyde 54 h after transfection; Zeiss LSM 510 confocal microscope

## AXH domain of ataxin-1, recombinant protein for size exclusion chromatography (from UniProt P54253 562-693) (domain or fragment)
[1]
  binding: binds

## Full-length non-expanded (Q30) ataxin-1 N-terminal to YFP (from UniProt P54253 1-815)
[2]
  binding: binds

## Full-length non-expanded (Q30) ataxin-1, CFP or YFP fused at its N-terminus (from UniProt P54253 1-815)
[2]
  binding: binds
